Where cells or extracts were used, other partners may take part. Tags and fusion partners may be left off the protein sequences shown.
How the values were obtained:
[1] = biological target: T1, Ronin (Thap11) (Mus musculus) (UniProt Q9JJD0); assay: EMSA; conditions: nuclear extract; complex inhibited by anti-FLAG antibody; protein in an extract; label: 5'-biotin
T1 sequence (looked up, limits assumed): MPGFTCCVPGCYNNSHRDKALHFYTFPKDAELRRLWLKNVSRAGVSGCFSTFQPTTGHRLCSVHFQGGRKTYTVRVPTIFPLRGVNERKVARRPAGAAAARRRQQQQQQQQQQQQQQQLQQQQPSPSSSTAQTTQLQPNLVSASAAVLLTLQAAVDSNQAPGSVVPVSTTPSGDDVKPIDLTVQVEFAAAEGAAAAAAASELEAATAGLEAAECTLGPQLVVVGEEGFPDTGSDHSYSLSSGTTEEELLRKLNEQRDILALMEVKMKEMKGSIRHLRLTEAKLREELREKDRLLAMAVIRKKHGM

[2] = biological target: T1, Ronin (Thap11) (Mus musculus); assay: competition with a labelled probe; conditions: protein in an extract, variant of 3x sequence, biotin-labelled probe

**Q.** Does “ATCAACTGTATACAAGCAGCTAGGACAGCACCCTAATGTC (double strand) [3x sequence, biotin-labelled probe]” bind [1]?
**A.** binds

**Q.** Does “TGTATTACAAGCTAGGACAGCACCT (double strand) [3x sequence, unlabelled double-stranded competitor]” bind [2]?
**A.** binds

**Q.** Does “TGTATTACAAGCTAGGACAGCACCT [3x sequence, unlabelled single-stranded competitor]” bind ([2]; unlabelled single-stranded 3x inhibits the gel shift, strand not stated, single-stranded DNA)?
**A.** binds
